Results deposited as PubChem BioAssay AID1159590 (NIAID, 2016)

Assay: 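Effect of gene knock-down on p65 moving into nuclei after TLR2 stimulation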
Cells: mouse RAW264.7 macrophage reporter cells expressing GFP-p65 and a Tnf promoter-mCherry
Knock-down reagent: single siRNA against mouse genes
Time to read-out: 48 to 72 hours after siRNA transfection, then 40 minutes of ligand
Treatment: Pam3CSK4 (TLR2/1 agonist) for 40 minutes before fixation; dose not given
Measured: 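p65 nuclear translocation measured by high-content imaging, shown for each siRNA as a robust z-score averaged across replicates, relative to negative controls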
Direction: p65 nuclear entry z-score: higher = more p65 moved into nuclei than in negative-control wells
Hit rule: In these data the active calls have p65 nuclear entry z-score, replicate mean at about -1.5 or lower, or at about 1.5 or higher
Meaning of the calls: active = strong change, up or down; inactive = little change
Shown is an unselected part of 756 reagents tested. 128 of them (17%) count as active. 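Calls are two-sided: both reduced and increased p65 nuclear entry count as active.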 The numbers tell different reagents against one gene apart. The record does not give: the amount of reagent.

Target gene | reagent no. | p65 nuclear entry z-score, replicate mean | activity call
Pik3cb (GeneID 74769) | 1 | 0.976 | inactive
Pik3cb (GeneID 74769) | 2 | -1.71 | active
Pik3cb (GeneID 74769) | 3 | -1.12 | inactive
Pik3cb (GeneID 74769) | 4 | 0.451 | inactive
Pik3cb (GeneID 74769) | 5 | 0.988 | inactive
Pik3cb (GeneID 74769) | 6 | -0.307 | inactive
Ly96 (GeneID 17087) | 1 | 0.298 | inactive
Ly96 (GeneID 17087) | 2 | -0.0421 | inactive
Ly96 (GeneID 17087) | 3 | -0.26 | inactive
Ly96 (GeneID 17087) | 4 | -0.86 | inactive
Ly96 (GeneID 17087) | 5 | -0.468 | inactive
Ly96 (GeneID 17087) | 6 | -0.313 | inactive
Il12a (GeneID 16159) | 1 | -0.3 | inactive
Il12a (GeneID 16159) | 2 | -0.637 | inactive
Il12a (GeneID 16159) | 3 | 0.663 | inactive
Il12a (GeneID 16159) | 4 | 0.0943 | inactive
Il12a (GeneID 16159) | 5 | 1.13 | inactive
Il12a (GeneID 16159) | 6 | -0.963 | inactive
Tlr2 (GeneID 24088) | 1 | -3.3 | active
Tlr2 (GeneID 24088) | 2 | -2.24 | active
Tlr2 (GeneID 24088) | 3 | -1.1 | inactive
Tlr2 (GeneID 24088) | 4 | -1.88 | active
Tlr2 (GeneID 24088) | 5 | 2.09 | active
Tlr2 (GeneID 24088) | 6 | -1.69 | active
Rel (GeneID 19696) | 1 | 0.0672 | inactive
Rel (GeneID 19696) | 2 | -0.264 | inactive
Rel (GeneID 19696) | 3 | 0.893 | inactive
Rel (GeneID 19696) | 4 | 1.17 | inactive
Rel (GeneID 19696) | 5 | -1.3 | inactive
Rel (GeneID 19696) | 6 | -0.287 | inactive
Atf2 (GeneID 11909) | 1 | -0.634 | inactive
Atf2 (GeneID 11909) | 2 | -1.03 | inactive
Atf2 (GeneID 11909) | 3 | -1.41 | inactive
Atf2 (GeneID 11909) | 4 | -0.856 | inactive
Atf2 (GeneID 11909) | 5 | -0.766 | inactive
Atf2 (GeneID 11909) | 6 | -0.223 | inactive
Sp1 (GeneID 20683) | 1 | -0.771 | inactive
Sp1 (GeneID 20683) | 2 | -1.38 | inactive
Sp1 (GeneID 20683) | 3 | -2.34 | active
Sp1 (GeneID 20683) | 4 | -1.22 | inactive
Sp1 (GeneID 20683) | 5 | 2.58 | active
Sp1 (GeneID 20683) | 6 | -1.23 | inactive
Akt1 (GeneID 11651) | 1 | -1.11 | inactive
Akt1 (GeneID 11651) | 2 | -2.14 | active
Akt1 (GeneID 11651) | 3 | -0.135 | inactive
Akt1 (GeneID 11651) | 4 | 4.02 | active
Akt1 (GeneID 11651) | 5 | -1.16 | inactive
Akt1 (GeneID 11651) | 6 | -0.477 | inactive
Ep300 (GeneID 328572) | 1 | -0.81 | inactive
Ep300 (GeneID 328572) | 2 | -0.766 | inactive
Ep300 (GeneID 328572) | 3 | -1.69 | active
Ep300 (GeneID 328572) | 4 | 2.07 | active
Ep300 (GeneID 328572) | 5 | -0.101 | inactive
Ep300 (GeneID 328572) | 6 | -0.469 | inactive
Map2k4 (GeneID 26398) | 1 | 1 | inactive
Map2k4 (GeneID 26398) | 2 | 0.499 | inactive
Map2k4 (GeneID 26398) | 3 | 0.184 | inactive
Map2k4 (GeneID 26398) | 4 | -1.07 | inactive
Map2k4 (GeneID 26398) | 5 | 0.414 | inactive
Map2k4 (GeneID 26398) | 6 | -0.893 | inactive
Irf9 (GeneID 16391) | 1 | -0.274 | inactive
Irf9 (GeneID 16391) | 2 | -1.77 | active
Irf9 (GeneID 16391) | 3 | -0.0382 | inactive
Irf9 (GeneID 16391) | 4 | -0.805 | inactive
Irf9 (GeneID 16391) | 5 | -1.85 | active
Irf9 (GeneID 16391) | 6 | -1.42 | inactive
Itgam (GeneID 16409) | 1 | 0.423 | inactive
Itgam (GeneID 16409) | 2 | -0.408 | inactive
Itgam (GeneID 16409) | 3 | -1.55 | active
Itgam (GeneID 16409) | 4 | 0.724 | inactive
Itgam (GeneID 16409) | 5 | -1.11 | inactive
Itgam (GeneID 16409) | 6 | -0.929 | inactive
Irf7 (GeneID 54123) | 1 | -1.6 | active
Irf7 (GeneID 54123) | 2 | 1.72 | active
Irf7 (GeneID 54123) | 3 | 1.03 | inactive
Irf7 (GeneID 54123) | 4 | -0.59 | inactive
Irf7 (GeneID 54123) | 5 | 2.33 | active
Irf7 (GeneID 54123) | 6 | -1.13 | inactive
Cyld (GeneID 74256) | 1 | 0.198 | inactive
Cyld (GeneID 74256) | 2 | -0.344 | inactive
Cyld (GeneID 74256) | 3 | 0.0303 | inactive
Cyld (GeneID 74256) | 4 | -1.1 | inactive
Cyld (GeneID 74256) | 5 | -1.38 | inactive
Cyld (GeneID 74256) | 6 | -0.431 | inactive
Tbk1 (GeneID 56480) | 1 | -1.35 | inactive
Tbk1 (GeneID 56480) | 2 | 1.56 | active
Tbk1 (GeneID 56480) | 3 | -0.709 | inactive
Tbk1 (GeneID 56480) | 4 | 0.0805 | inactive
Tbk1 (GeneID 56480) | 5 | -1.16 | inactive
Tbk1 (GeneID 56480) | 6 | 0.512 | inactive
Elk4 (GeneID 13714) | 1 | -1.08 | inactive
Elk4 (GeneID 13714) | 2 | 0.34 | inactive
Elk4 (GeneID 13714) | 3 | 0.249 | inactive
Elk4 (GeneID 13714) | 4 | 0.28 | inactive
Elk4 (GeneID 13714) | 5 | -0.274 | inactive
Elk4 (GeneID 13714) | 6 | -1.01 | inactive
Pik3cd (GeneID 18707) | 1 | 0.217 | inactive
Pik3cd (GeneID 18707) | 2 | -0.821 | inactive
Pik3cd (GeneID 18707) | 3 | -0.311 | inactive
Pik3cd (GeneID 18707) | 4 | 0.873 | inactive
Pik3cd (GeneID 18707) | 5 | -0.526 | inactive
Pik3cd (GeneID 18707) | 6 | -0.0666 | inactive
Akt2 (GeneID 11652) | 1 | -0.977 | inactive
Akt2 (GeneID 11652) | 2 | 0.447 | inactive
Akt2 (GeneID 11652) | 3 | 0.0604 | inactive
Akt2 (GeneID 11652) | 4 | 1.78 | active
Akt2 (GeneID 11652) | 5 | 7.87 | active
Akt2 (GeneID 11652) | 6 | 2.05 | active
Myd88 (GeneID 17874) | 1 | 0.436 | inactive
Myd88 (GeneID 17874) | 2 | -1.65 | active
Myd88 (GeneID 17874) | 3 | -2.78 | active
Myd88 (GeneID 17874) | 4 | -0.248 | inactive
Myd88 (GeneID 17874) | 5 | 0.0717 | inactive
Myd88 (GeneID 17874) | 6 | -0.919 | inactive

In a second layout: results already given
Target gene,reagent no.,"p65 nuclear entry z-score, replicate mean",activity call
Map2k4 (GeneID 26398),4,-1.07,inactive
Map2k4 (GeneID 26398),5,0.414,inactive
Map2k4 (GeneID 26398),6,-0.893,inactive
Irf9 (GeneID 16391),1,-0.274,inactive
Irf9 (GeneID 16391),2,-1.77,active
Irf9 (GeneID 16391),3,-0.0382,inactive
Irf9 (GeneID 16391),4,-0.805,inactive
Irf9 (GeneID 16391),5,-1.85,active
Irf9 (GeneID 16391),6,-1.42,inactive
Itgam (GeneID 16409),1,0.423,inactive
Itgam (GeneID 16409),2,-0.408,inactive
Itgam (GeneID 16409),3,-1.55,active
Itgam (GeneID 16409),4,0.724,inactive
Itgam (GeneID 16409),5,-1.11,inactive
Itgam (GeneID 16409),6,-0.929,inactive
Irf7 (GeneID 54123),1,-1.6,active
Irf7 (GeneID 54123),2,1.72,active
